One assay concerns the target T1, GST-RIM1_(1-55) (UniProt Q9JIR4).
T1 sequence: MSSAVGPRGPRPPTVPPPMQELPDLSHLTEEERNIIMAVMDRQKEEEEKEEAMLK
The experiment in a line: pull-down; GST fusion proteins immobilized on glutathione beads, incubated with solubilized brain proteins in the presence of GTP-γS; immunoblot; only the target purified. (Immunoblotting shows a protein as a band on a membrane.)

A further assay has as its target T2, GST-RIM1_(1-399) (UniProt Q9JIR4).
T2 sequence: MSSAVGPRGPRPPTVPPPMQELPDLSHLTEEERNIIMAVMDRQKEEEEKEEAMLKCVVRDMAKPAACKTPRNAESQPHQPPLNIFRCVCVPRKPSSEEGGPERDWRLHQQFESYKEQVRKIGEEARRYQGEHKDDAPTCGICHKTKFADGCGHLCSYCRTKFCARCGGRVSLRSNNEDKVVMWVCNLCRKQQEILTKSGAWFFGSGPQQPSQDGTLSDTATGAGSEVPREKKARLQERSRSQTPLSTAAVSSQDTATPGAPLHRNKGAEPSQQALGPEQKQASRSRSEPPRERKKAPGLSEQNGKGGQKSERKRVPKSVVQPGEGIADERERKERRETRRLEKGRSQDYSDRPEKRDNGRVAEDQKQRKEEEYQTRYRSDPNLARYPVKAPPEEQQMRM
The description is as above.

These are yes or no findings as the source states them, for the method shown. Binding seen in cells or lysates may run through a third protein. Tags and fused reporters may be left off the sequences shown.

Take Rab5: the binding entry with GST-RIM1_(1-55) and with GST-RIM1_(1-399) was “no binding” in each case.
